Data from publication PMC10163288.
The list shows a part of the results.

B1: il10ra_site1_normal_mot_HHH_b2_02116_af2_000000165_0001_41_55_H_._HHH_b1_05502_af2_0001_0000300011_0000001_0 (protein)
chain: SSSSDEEVRRRIAELYWRVAFLLRQGNPEEAKKVLEEMEELVEEYNDHQARAALRLAEQALSSSS
B2: il10ra_site1_sap_26_mot_HHH_b1_02637_000000294_0001_42_59_H_._HHH_b2_04435_0001_0000300037_0000001_0_0001 (protein)
chain: SSSSDEELKEVLELLRQAVRLALRGNPEKAEEVLEEAEELAREANDERALRMIEDMKRALKSSSS
B3: il10ra_site1_normal_mot_HHH_b2_05532_000000217_0001_1_18_H_._HHH_b2_05171_0001_0000200038_0000001_0_af2pred_0001 (protein)
chain: SSSSDEEVQEFVERVEEEAKELAERGDPREASELLVKASREAAEKGDPHLARYLAKLFARLSSSS
B4: il10ra_site1_sap_26_mot_HHH_b1_00317_af2_000000265_0001_23_40_H_._HHH_b1_05946_0001_0000100002_0000001_0_0001 (protein)
chain: SSSSDDVAREAVERMLEAAKQLDDEEYVRLALRFARASAEALGDPELQKLVEEVEEEIEERSSSS
B5: il10ra_site1_sap_23_mot_HHH_b2_07442_000000239_0001_40_54_H_._HHH_b1_01311_0001_0000400033_0000001_0_0001 (protein)
chain: SSSSDEEIREEVEELLEEAEKTSDVDEAYELLRRAIELASEGNDPELMRLVMEVSRRWLRSSSSS
B6: il10ra_site1_normal_mot_HHH_b2_06767_000000020_0001_41_56_H_._HHH_b2_08020_0001_0000100004_0000001_0 (protein)
chain: SSSSDEEEEEVLELLVRVARLLDEGDEEKAEEILREAEELAKEINDPRLELAVRFLKALASSSSS
B7: il10ra_site1_sap_19_mot_HHH_b1_03531_000000273_0001_41_54_H_._HHH_b1_03411_0001_0000300043_0000002_0_0001 (protein)
chain: SSSSTEAYEVARKAIEEARKLWEEGDDEQAREVLEEAIRIAEELGNWAAVFSLRHLLEALRSSSS
B8: il10ra_site1_sap_14_mot_HHH_b1_06819_af2_000000172_0001_23_38_H_._bfcbda098b113f8b03b409ccfd3d23fc_0001_af2_0001_0000600039_0000001_0_0001 (protein)
chain: SSSSDEEQRVVELLYRVVRLWAEGNPEEAEEVLKEARRLAEELGDEELERYVEIARSFVESSSSS
B9: il10ra_site1_sap_16_mot_6792f2186577ebd01aa11eb855ed7b57_0001_af2_000000149_0001_1_16_H_._ebd16f28eafe1420358629e7387fb1d1_0001_1_0001_0000600022_0000001_0_0001 … (protein)
chain: SSSSDEDERAVRRTLRFARFAFEEGDPEAAKFLLKAAKELAERAGNEELLKEIERLEEELKSSSS
B10: il10ra_site1_normal_mot_HHH_b2_02337_000000026_0001_38_52_H_._HHH_b1_05094_0001_0000200019_0000001_0 (protein)
chain: SSSSSDEEEREVEELIEEAEQIPDPEEAARVLQEAVRLAFRAKNKELLRLIWELVQKLHSSSSSS
B11: il10ra_site1_normal_mot_39a7b8d0c4c3fc04bafbda6ce6101d3a_0001_1_af2_000000014_0001_34_48_H_._HHH_b2_05946_0001_0000200011_0000001_0 (protein)
chain: SSSSSDEEEEEVEELLEEAKHVEDRQEADRLLLRALRIAIEGNNPELLQLVWRVVRELASSSSSS
B12: il10ra_site1_sap_22_mot_HHH_b2_07938_000000207_0001_42_56_H_._HHH_b1_08012_0001_0000300016_0000001_0_0001 (protein)
chain: SSSSSEVAREIYRLSREAMEYYREGDDEEARRLIEEAIELAEENNNRVQLVTLRYILKLLRSSSS
B13: il10ra_site1_sap_33_mot_HHH_b2_03631_af2_000000003_0001_42_56_H_._2afa63019087768a840a65be6aefc780_0001_1_0001_0000700020_0000001_0_0001 (protein)
chain: SSSSSDRQERLHARALVFFAKWARNPEAARIMLERAKELAEEVNDEELQREIEELLKELGSSSSS
B14: il10ra_site1_sap_18_mot_HHH_b2_04912_000000028_0001_1_20_H_._HHH_b1_05046_af2_0001_0000300024_0000002_0_0001_af2pred_0001 (protein)
chain: SSSSSSEESEELLEQLRRALEEGDEKLIIELAKEISRLARELNDKELLKELQKLLNKFLSSSSSS
B15: il10ra_site1_normal_mot_8756ee2cf497b5429c717dfc0c0bcfd6_0001_000000186_0001_1_13_H_._HHH_b2_05202_0001_0000100002_0000003_0_af2pred_0001 (protein)
chain: SSSSSSDVAQRIIELLRRAAKISDEEEVREILEEAEELAEEANNETARAIIEFLRKLLDSSSSSS
B16: il10ra_site1_sap_23_mot_HHH_b1_02637_000000294_0001_42_59_H_._HHH_b1_04025_0001_0000300021_0000002_0_0001 (protein)
chain: SSSSSDEEEERVEELLERAREIPDPDEAFKLIEEAIKIATESRNPELERLVMEFLREWLRSSSSS
B17: il10ra_site1_normal_mot_HHH_b1_05357_000000034_0001_23_39_H_._HHH_b2_00663_0001_0000400021_0000002_1_af2pred_0001 (protein)
chain: SSSSSSDEEEVERLLEEAKEVPDPEERSYLLVRAFAVAYRSNDPELERLVEEVAKRLSESSSSSS
B18: il10ra_site1_normal_mot_HHH_b1_00999_000000080_0001_41_55_H_._HHH_b1_05572_af2_0001_0000300008_0000001_0 (protein)
chain: SSSSDELEEEFEKLEEELKHIEDPEEFSRVAAELVRLAFKLGDEELLQELWRIVREFGRKSSSSS
B19: il10ra_site1_sap_24_mot_HHH_b1_03314_af2_000000278_0001_42_55_H_._HHH_b2_01456_af2_0001_0000400018_0000001_0_0001_af2pred_dldesign_0_af2pred (protein)
chain: SSSSSLNQEVIELIKEAAELLSEGKPEEAKEVLEKALELAKKANNPLLVYTVEYLLSRLESSSSS

Target: il10ra, Q13651
Experiment: yeast display titration

Binder	apparent Kd
B1	inactive: no binding seen
B2	inactive: no binding seen
B3	inactive: no binding seen
B4	inactive: no binding seen
B5	inactive: no binding seen
B6	inactive: no binding seen
B7	inactive: no binding seen
B8	inactive: no binding seen
B9	inactive: no binding seen
B10	inactive: no binding seen
B11	inactive: no binding seen
B12	inactive: no binding seen
B13	inactive: no binding seen
B14	inactive: no binding seen
B15	inactive: no binding seen
B16	inactive: no binding seen
B17	inactive: no binding seen
B18	inactive: no binding seen
B19	inactive: no binding seen
